Data: the supplement of paper PMC3334620
Whole data set: some 33,000 sequences, median “E-score (-0.5 to 0.5)” near -0.0034, cut for the highest 2% near 0.25. The list shows a part of the results.

The sequences below were run against T1, Yap3 (UniProt P38749) (assay: PBM E-score (8-mer binding enrichment) (E-score (-0.5 to 0.5)); higher = stronger / more preferred TF binding). Conditions: protein concentration: 100 nM; construct: GST-full length.
T1 sequence: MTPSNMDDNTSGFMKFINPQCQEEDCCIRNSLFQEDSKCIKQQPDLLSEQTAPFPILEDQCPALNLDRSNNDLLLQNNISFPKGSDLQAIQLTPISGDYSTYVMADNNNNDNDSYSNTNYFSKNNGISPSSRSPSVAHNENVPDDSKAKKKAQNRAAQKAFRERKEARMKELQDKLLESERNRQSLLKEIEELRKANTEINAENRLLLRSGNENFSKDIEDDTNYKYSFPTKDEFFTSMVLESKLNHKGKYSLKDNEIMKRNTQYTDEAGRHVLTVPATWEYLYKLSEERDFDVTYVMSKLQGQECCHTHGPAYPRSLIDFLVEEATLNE
Procedure: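 Universal 'all 10-mer' protein binding microarrays (Agilent AMADID 015681) probed with GST-tagged S. cerevisiae TFs (full-length or DBD) made by in vitro transcription/translation (PURExpress), about 100-200 nM. Bound TF was detected with fluorescent anti-GST. Each ungapped 8-mer (which stands for itself and its reverse complement) is scored by the PBM enrichment score (E-score), a modified Wilcoxon-Mann-Whitney statistic from -0.5 to +0.5, computed with the Universal PBM Analysis Suite. Scale: above 0.35 generally sequence-specific binding.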
In the case of CTCGCATC, the “PBM E-score” value was -0.0576.
CTATTTGC was tested, and the “PBM E-score” value was -0.0602.
For CAACTAGA, the “PBM E-score” value was -0.00242.
AAGATATC was tested, and the “PBM E-score” value was 0.118.
GAGTAGGA was tested, and the “PBM E-score” value was -0.0726.
For GTCAAATA, the “PBM E-score” value was 0.209.
In the case of GCGGCTTA, the “PBM E-score” value was 0.0695.
In the case of CTTATATA, the “PBM E-score” value was 0.315.
In the case of CGCACTTC, the “PBM E-score” value was -0.0913.
For AAATTACA, the “PBM E-score” value was 0.217.
CCTCGTTA was tested, and the “PBM E-score” value was 0.0852.
For CCGTGACG, the “PBM E-score” value was -0.106.
AATTGGCG was tested, and the “PBM E-score” value was 0.0836.
For AGGGGAAA, the “PBM E-score” value was -0.0319.
In the case of AACTGCGC, the “PBM E-score” value was -0.0507.
AAGATTGT was tested, and the “PBM E-score” value was 0.056.
For ATTACTCC, the “PBM E-score” value was 0.143.
In the case of GTAGCCAC, the “PBM E-score” value was -0.141.
With GATGATGA the “PBM E-score” value was 0.0246.
CAACGTCC was tested, and the “PBM E-score” value was -0.231.
In the case of AAGATTTG, the “PBM E-score” value was 0.0472.
AACCCTTG was tested, and the “PBM E-score” value was -0.162.
With ATCAGGCG the “PBM E-score” value was 0.0742.
ATAACCGC was tested, and the “PBM E-score” value was 0.0861.
With CATCGGAA the “PBM E-score” value was 0.186.
With AGCTAATA the “PBM E-score” value was 0.104.
With AATGCACA the “PBM E-score” value was 0.0833.
For GAGTACAC, the “PBM E-score” value was -0.115.
In the case of CTAGGTTA, the “PBM E-score” value was 0.0859.
ACAGGTCT was tested, and the “PBM E-score” value was -0.102.
For CATAAACA, the “PBM E-score” value was 0.213.
With GTGGAAAC the “PBM E-score” value was 0.0323.
ATTAGCGG was tested, and the “PBM E-score” value was -0.00099.
In the case of AAATTGAG, the “PBM E-score” value was 0.0237.
With CGTTTAGC the “PBM E-score” value was -0.0511.
In the case of GACTGGAC, the “PBM E-score” value was -0.315.
GCCAGTAC was tested, and the “PBM E-score” value was -0.12.
CTTAAACA was tested, and the “PBM E-score” value was 0.00735.
With CTAGGGGC the “PBM E-score” value was -0.168.
In the case of CTAGACTA, the “PBM E-score” value was -0.0398.
In the case of CTGTCAGC, the “PBM E-score” value was 0.0678.
For CGCAACCC, the “PBM E-score” value was -0.0769.
For ACTACTGG, the “PBM E-score” value was -0.0911.
For ATCGAGGG, the “PBM E-score” value was -0.0785.
In the case of CCTCATCG, the “PBM E-score” value was 0.0887.
CGAATGCC was tested, and the “PBM E-score” value was -0.0529.
In the case of ATGCCGCG, the “PBM E-score” value was 0.0881.
CTTTAGTC was tested, and the “PBM E-score” value was -0.0892.
For GAGGTAGA, the “PBM E-score” value was -0.0601.
With AAGACTAC the “PBM E-score” value was -0.0386.
With GCATCAAA the “PBM E-score” value was 0.138.
With GACTGGCC the “PBM E-score” value was -0.267.
With CCACGTGC the “PBM E-score” value was 0.0444.
In the case of AAGCAAGT, the “PBM E-score” value was 0.0666.
For CATCTACA, the “PBM E-score” value was 0.144.
For ATCCAAGC, the “PBM E-score” value was -0.146.
With ATAGACTA the “PBM E-score” value was 0.0391.
With CCCACTAC the “PBM E-score” value was 0.118.
For GTGGTCGA, the “PBM E-score” value was -0.117.
In the case of AACACGGG, the “PBM E-score” value was 0.01.
GGGTCATA was tested, and the “PBM E-score” value was -0.118.
ACAAATCC was tested, and the “PBM E-score” value was 0.195.
With CCGTAAGC the “PBM E-score” value was 0.144.
TTCGAGAA was tested, and the “PBM E-score” value was 0.0629.
In the case of ACCCACGC, the “PBM E-score” value was -0.0325.
With CACCTTGA the “PBM E-score” value was -0.157.
CCACGTGG was tested, and the “PBM E-score” value was -0.263.
With AGACGCAC the “PBM E-score” value was -0.00134.
AGATCCTA was tested, and the “PBM E-score” value was 0.0833.
With CCTCGCCA the “PBM E-score” value was -0.302.
GGCGGCTA was tested, and the “PBM E-score” value was -0.0121.
CGCTTTCC was tested, and the “PBM E-score” value was -0.0606.
For CAGCCAAA, the “PBM E-score” value was 0.0704.
AAGTGGTG was tested, and the “PBM E-score” value was -0.086.
In the case of CCGAGTCG, the “PBM E-score” value was -0.185.
With ACTCATGC the “PBM E-score” value was 0.0756.
In the case of ACTCTTAA, the “PBM E-score” value was -0.0823.
ACACTCAC was tested, and the “PBM E-score” value was 0.16.
With AACCTGCG the “PBM E-score” value was -0.149.
For TAACGGCA, the “PBM E-score” value was 0.0998.
CAGGAAAG was tested, and the “PBM E-score” value was -0.104.
With CCTAAAAG the “PBM E-score” value was -0.238.
In the case of AACGTACA, the “PBM E-score” value was 0.157.
GGTAACTA was tested, and the “PBM E-score” value was 0.186.
In the case of CGGCCGGC, the “PBM E-score” value was -0.268.
With CATTCACC the “PBM E-score” value was 0.14.
